Results: the supplement of paper PMC4604168 (melanoma cell lines)
This is one part of the list. Repeats are few or missing, and single values can be far off.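 Cells were imaged in 1,536-well plates, and nuclei stained with an antibody against cleaved PARP were counted against all DNA-stained nuclei to give the apoptosis fraction. Screening doses were chosen to leave most cells alive, and resting and induced cleaved-PARP levels differ strongly between cell lines.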

Columns and labels:
Experiment in all cases: cleaved PARP positive nuclei fraction relative to DMSO control; melanoma cells; higher = more apoptosis
Details in all cases: library dose: low library concentration; 72 h
501Mel = test system: 501Mel
A101D = test system: A101D
A2058 = test system: A2058
A375 = test system: A375
C32 = test system: C32
CBRC008 = test system: CBRC008 (line from a melanoma biopsy)
CBRC014 = test system: CBRC014 (line from a melanoma biopsy)
CBRC016 = test system: CBRC016 (line from a melanoma biopsy)
CBRC017 = test system: CBRC017 (line from a melanoma biopsy)
CBRC034 = test system: CBRC034 (line from a melanoma biopsy)
COLO792 = test system: COLO792
COLO800 = test system: COLO800
COLO829 = test system: COLO829
G361 = test system: G361
IPC-298 = test system: IPC-298
IST-MEL1 = test system: IST-MEL1
LB2518-MEL = test system: LB2518-MEL
LOXIMVI = test system: LOXIMVI
MEL-HO = test system: MEL-HO
CBRC013 = test system: CBRC013 (line from a melanoma biopsy)

| Structure (SMILES) | cleaved PARP positive nuclei fraction (501Mel) [%] | cleaved PARP positive nuclei fraction (A101D) [%] | cleaved PARP positive nuclei fraction (A2058) [%] | cleaved PARP positive nuclei fraction (A375) [%] | cleaved PARP positive nuclei fraction (C32) [%] | cleaved PARP positive nuclei fraction (CBRC008) [%] | cleaved PARP positive nuclei fraction (CBRC014) [%] | cleaved PARP positive nuclei fraction (CBRC016) [%] | cleaved PARP positive nuclei fraction (CBRC017) [%] | cleaved PARP positive nuclei fraction (CBRC034) [%] | cleaved PARP positive nuclei fraction (COLO792) [%] | cleaved PARP positive nuclei fraction (COLO800) [%] | cleaved PARP positive nuclei fraction (COLO829) [%] | cleaved PARP positive nuclei fraction (G361) [%] | cleaved PARP positive nuclei fraction (IPC-298) [%] | cleaved PARP positive nuclei fraction (IST-MEL1) [%] | cleaved PARP positive nuclei fraction (LB2518-MEL) [%] | cleaved PARP positive nuclei fraction (LOXIMVI) [%] | cleaved PARP positive nuclei fraction (MEL-HO) [%] | cleaved PARP positive nuclei fraction (CBRC013) [%] |
| --- | --- | --- | --- | --- | --- | --- | --- | --- | --- | --- | --- | --- | --- | --- | --- | --- | --- | --- | --- | --- |
| OCc1c[nH]c2ccccc12 [Indole-3-carbinol] + Nc1cccc2c1CN(C1CCC(=O)NC1=O)C2=O [lenalidomide] (first compound 0.8 µM, partner dose 1 µM) | 91.6 | 47 | 48.6 | 45.6 | 152 | 79.6 | 87.7 | 73.6 | 113 | 97 | 94.8 | 61.1 | 155 | 106 | 126 | 57.7 | 48 | 68.7 | 72.7 |  |
| C#Cc1cccc(Nc2ncnc3cc(OCCOC)c(OCCOC)cc23)c1 [erlotinib] + COCC[n+]1c2c(n(Cc3cnccn3)c1C)C(=O)c1ccccc1C2=O [YM155] (first compound 0.8 µM, partner dose 0.0004 µM) | 60.3 | 59.4 | 52 | 140 | 168 | 221 | 96.7 | 35.5 | 117 | 30.6 | 114 | 80.2 | 54.7 | 115 | 98.7 | 71 | 285 | 254 | 118 |  |
| OCc1c[nH]c2ccccc12 [Indole-3-carbinol] + C#Cc1cccc(Nc2ncnc3cc(OCCOC)c(OCCOC)cc23)c1 [erlotinib] (first compound 0.8 µM, partner dose 0.8 µM) | 68.6 | 250 | 119 | 107 | 86 | 74.8 | 86.4 | 118 | 87.4 | 93.4 | 99 | 123 | 91.4 | 82.2 | 49.1 | 61.1 | 117 | 141 | 120 |  |
| C#Cc1cccc(Nc2ncnc3cc(OCCOC)c(OCCOC)cc23)c1 [erlotinib] + Cc1nc(Nc2ncc(C(=O)Nc3c(C)cccc3Cl)s2)cc(N2CCN(CCO)CC2)n1 [dasatanib] (first compound 0.8 µM, partner dose 0.004 µM) | 50.4 | 57 | 76.7 | 126 | 203 | 135 | 107 | 96.3 | 107 | 159 | 135 | 117 | 259 | 36.4 | 232 | 135 | 57.4 | 113 | 97.2 |  |
| CC(=O)c1c(C)c2cnc(Nc3ccc(N4CCNCC4)cn3)nc2n(C2CCCC2)c1=O [palbociclib] + OCc1c[nH]c2ccccc12 [Indole-3-carbinol] (first compound 0.04 µM, partner dose 0.8 µM) | 95 | 79.1 | 42.9 | 80.7 | 193 | 82.6 | 118 | 254 | 117 | 70.2 | 48.3 | 42.3 | 156 | 120 | 141 | 160 | 100 | 120 | 157 |  |
| Clc1ccc(Nc2nnc(Cc3ccncc3)c3ccccc23)cc1 [vatalanib] + C[C@]1(c2nc3c(C(N)=O)cccc3[nH]2)CCCN1 [Veliparib] (first compound 2 µM, partner dose 1.4 µM) | 120 | 231 | 93.5 | 123 | 75.7 | 40.5 | 127 | 124 | 139 | 192 | 149 | 155 | 94.2 | 133 | 151 | 259 | 98.6 | 200 | 40.2 |  |
| Cc1nc(Nc2ncc(C(=O)Nc3c(C)cccc3Cl)s2)cc(N2CCN(CCO)CC2)n1 [dasatanib] + Cn1nnc2c(C(N)=O)ncn2c1=O [temozolomide] (first compound 0.004 µM, partner dose 2 µM) | 128 | 54.8 | 96.8 | 143 | 101 | 60.9 | 108 | 36 | 64.1 | 219 | 63.5 | 78.3 | 99.7 | 103 | 128 | 702 | 232 | 357 | 133 |  |
| O=C(Nc1cccc(Cl)c1)Nc1ncc(CCNc2ncnc3ccsc23)s1 + c1cc(-c2cnn3cc(-c4ccc(OCCN5CCCCC5)cc4)cnc23)ccn1 [Dorsomorphin] (first compound 0.0008 µM, partner dose 0.4 µM) | 133 | 59.1 | 69 | 89.5 | 82.7 |  | 103 | 52.9 | 86.2 | 89.4 | 111 | 96.2 | 73.5 | 102 | 85.1 | 96 | 84.2 | 58.1 |  | 63.7 |
| COCC[n+]1c2c(n(Cc3cnccn3)c1C)C(=O)c1ccccc1C2=O + C[C@]1(c2nc3c(C(N)=O)cccc3[nH]2)CCCN1 [Veliparib] (first compound 0.0004 µM, partner dose 1.4 µM) | 81.9 | 159 | 227 | 136 | 83.9 | 193 | 97.5 | 166 | 153 | 44.5 | 83 | 167 | 122 | 67 | 54.4 | 105 | 222 | 42.6 | 192 |  |
| NC(=O)Nc1cc(-c2cccc(F)c2)sc1C(=O)N[C@H]1CCCNC1 + O=C1NC(=O)/C(=C/c2ccc(-c3ccc(F)cc3O)o2)S1 [AS252424] (first compound 0.02 µM, partner dose 1 µM) | 112 | 140 | 44.9 | 237 | 361 |  | 101 | 74 | 91.7 | 78.4 | 87.8 | 126 | 138 | 45.8 | 36.6 | 25.5 | 59.9 | 62.5 |  | 49.1 |
| COCC[n+]1c2c(n(Cc3cnccn3)c1C)C(=O)c1ccccc1C2=O + Cn1nnc2c(C(N)=O)ncn2c1=O [temozolomide] (first compound 0.0004 µM, partner dose 2 µM) | 157 | 192 | 115 | 156 | 80.9 | 447 | 92.2 | 193 | 120 | 58.7 | 128 | 149 | 83 | 161 | 56 | 131 | 146 | 123 | 129 |  |
| Clc1ccc(Nc2nnc(Cc3ccncc3)c3ccccc23)cc1 [vatalanib] + Cc1nc(Nc2ncc(C(=O)Nc3c(C)cccc3Cl)s2)cc(N2CCN(CCO)CC2)n1 [dasatanib] (first compound 2 µM, partner dose 0.004 µM) | 112 | 55.9 | 165 | 217 | 284 | 34.6 | 126 | 184 | 270 | 159 | 208 | 149 | 159 | 64.1 | 179 | 214 | 108 | 492 | 142 |  |
| COc1cc(Nc2ncc(F)c(Nc3ccc4c(n3)NC(=O)C(C)(C)O4)n2)cc(OC)c1OC [Tamatinib] + COc1ccc(COc2ccc(Cc3cnc(N)nc3N)cc2OC)cc1 [GW2580] (first compound 0.4 µM, partner dose 1 µM) | 207 | 97.1 | 56.3 | 166 | 130 |  | 93.2 | 82.6 | 81.7 | 40.2 | 190 | 151 | 93.1 | 134 | 162 | 115 | 189 | 36.4 |  | 47.7 |
| NC(=O)Nc1cc(-c2cccc(F)c2)sc1C(=O)N[C@H]1CCCNC1 + Cc1cc([N+](=O)[O-])ccc1NS(=O)(=O)c1cc(Cl)ccc1Cl [FH535] (first compound 0.02 µM, partner dose 1 µM) | 62.7 | 253 | 37.2 | 188 | 199 |  | 131 | 2830 | 816 | 1550 | 63.8 | 67.7 | 85.9 | 256 | 47.6 | 84.6 | 117 | 36.8 |  | 141 |
| C#Cc1cccc(Nc2ncnc3cc(OCCOC)c(OCCOC)cc23)c1 [erlotinib] + C[C@]1(c2nc3c(C(N)=O)cccc3[nH]2)CCCN1 [Veliparib] (first compound 0.8 µM, partner dose 1.4 µM) | 62.3 | 105 | 105 | 188 | 38.9 | 290 | 94.6 | 35.4 | 85.6 | 89.8 | 118 | 81.2 | 150 | 123 | 94.6 | 145 | 120 | 67.6 | 135 |  |
| Cn1c(Nc2ccc(C(F)(F)F)cc2)nc2cc(Oc3ccnc(-c4ncc(C(F)(F)F)[nH]4)c3)ccc21 + Nc1cccc2c1CN(C1CCC(=O)NC1=O)C2=O [lenalidomide] (first compound 0.08 µM, partner dose 1 µM) | 225 | 220 | 170 | 250 | 82.8 | 99.3 | 105 | 149 | 116 | 40.6 | 490 | 119 | 220 | 133 | 140 | 65.9 | 176 | 93.4 | 155 |  |
| OCc1c[nH]c2ccccc12 [Indole-3-carbinol] + Cc1nc(Nc2ncc(C(=O)Nc3c(C)cccc3Cl)s2)cc(N2CCN(CCO)CC2)n1 [dasatanib] (first compound 0.8 µM, partner dose 0.004 µM) | 90.1 | 115 | 71.4 | 239 | 91.9 | 47.8 | 179 | 89.6 | 99.7 | 93.3 | 142 | 184 | 117 | 103 | 98.1 | 71.6 | 60.2 | 283 | 88.9 |  |
| Cn1c(Nc2ccc(C(F)(F)F)cc2)nc2cc(Oc3ccnc(-c4ncc(C(F)(F)F)[nH]4)c3)ccc21 + CC(C)CCN1c2nc(Nc3cc(F)c(O)c(F)c3)ncc2N(C)C(=O)C1C [BID1870] (first compound 0.08 µM, partner dose 0.2 µM) | 145 | 373 | 107 | 566 | 49.9 |  | 99.1 | 51.8 | 127 | 121 | 396 | 184 | 88.3 | 195 | 299 | 136 | 305 | 137 |  | 93.1 |

A run of entries from the list above, for reference:

| Structure (SMILES) | cleaved PARP positive nuclei fraction (501Mel) [%] | cleaved PARP positive nuclei fraction (A101D) [%] | cleaved PARP positive nuclei fraction (A2058) [%] | cleaved PARP positive nuclei fraction (A375) [%] | cleaved PARP positive nuclei fraction (C32) [%] | cleaved PARP positive nuclei fraction (CBRC008) [%] | cleaved PARP positive nuclei fraction (CBRC014) [%] | cleaved PARP positive nuclei fraction (CBRC016) [%] | cleaved PARP positive nuclei fraction (CBRC017) [%] | cleaved PARP positive nuclei fraction (CBRC034) [%] | cleaved PARP positive nuclei fraction (COLO792) [%] | cleaved PARP positive nuclei fraction (COLO800) [%] | cleaved PARP positive nuclei fraction (COLO829) [%] | cleaved PARP positive nuclei fraction (G361) [%] | cleaved PARP positive nuclei fraction (IPC-298) [%] | cleaved PARP positive nuclei fraction (IST-MEL1) [%] | cleaved PARP positive nuclei fraction (LB2518-MEL) [%] | cleaved PARP positive nuclei fraction (LOXIMVI) [%] | cleaved PARP positive nuclei fraction (MEL-HO) [%] | cleaved PARP positive nuclei fraction (CBRC013) [%] |
| --- | --- | --- | --- | --- | --- | --- | --- | --- | --- | --- | --- | --- | --- | --- | --- | --- | --- | --- | --- | --- |
| C#Cc1cccc(Nc2ncnc3cc(OCCOC)c(OCCOC)cc23)c1 [erlotinib] + C[C@]1(c2nc3c(C(N)=O)cccc3[nH]2)CCCN1 [Veliparib] (first compound 0.8 µM, partner dose 1.4 µM) | 62.3 | 105 | 105 | 188 | 38.9 | 290 | 94.6 | 35.4 | 85.6 | 89.8 | 118 | 81.2 | 150 | 123 | 94.6 | 145 | 120 | 67.6 | 135 |  |
| Cn1c(Nc2ccc(C(F)(F)F)cc2)nc2cc(Oc3ccnc(-c4ncc(C(F)(F)F)[nH]4)c3)ccc21 + Nc1cccc2c1CN(C1CCC(=O)NC1=O)C2=O [lenalidomide] (first compound 0.08 µM, partner dose 1 µM) | 225 | 220 | 170 | 250 | 82.8 | 99.3 | 105 | 149 | 116 | 40.6 | 490 | 119 | 220 | 133 | 140 | 65.9 | 176 | 93.4 | 155 |  |
